Experiment [1] has as its target T1, TELOMERE REPEAT BINDING protein 3 (TRB3), BiFC fusion (Arabidopsis) (UniProt Q9M2X3).
T1 sequence: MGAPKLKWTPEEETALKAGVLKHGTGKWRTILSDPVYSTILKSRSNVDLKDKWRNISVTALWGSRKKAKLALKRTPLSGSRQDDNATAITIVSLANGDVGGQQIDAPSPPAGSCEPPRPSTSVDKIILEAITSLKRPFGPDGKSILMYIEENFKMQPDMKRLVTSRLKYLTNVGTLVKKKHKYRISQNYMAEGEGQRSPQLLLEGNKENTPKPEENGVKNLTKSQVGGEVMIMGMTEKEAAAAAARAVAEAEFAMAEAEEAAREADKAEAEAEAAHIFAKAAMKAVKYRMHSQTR
Nature of the experiment: split reporter.

The chains behind the UniProt entries cited, without tags or fusion partners. Where a name states a change or a piece, a line headed by the entry shows the natural chain unless it says otherwise.
UniProt F4I7L1: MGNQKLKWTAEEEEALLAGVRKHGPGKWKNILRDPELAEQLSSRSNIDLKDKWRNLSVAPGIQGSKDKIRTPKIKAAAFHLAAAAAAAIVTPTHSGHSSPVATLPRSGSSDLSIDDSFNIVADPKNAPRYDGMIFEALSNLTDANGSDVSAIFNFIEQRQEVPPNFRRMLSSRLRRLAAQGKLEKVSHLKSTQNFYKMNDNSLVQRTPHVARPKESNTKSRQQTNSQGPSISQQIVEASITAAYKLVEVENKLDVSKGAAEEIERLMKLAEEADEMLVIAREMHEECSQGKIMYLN
UniProt F4IEY4: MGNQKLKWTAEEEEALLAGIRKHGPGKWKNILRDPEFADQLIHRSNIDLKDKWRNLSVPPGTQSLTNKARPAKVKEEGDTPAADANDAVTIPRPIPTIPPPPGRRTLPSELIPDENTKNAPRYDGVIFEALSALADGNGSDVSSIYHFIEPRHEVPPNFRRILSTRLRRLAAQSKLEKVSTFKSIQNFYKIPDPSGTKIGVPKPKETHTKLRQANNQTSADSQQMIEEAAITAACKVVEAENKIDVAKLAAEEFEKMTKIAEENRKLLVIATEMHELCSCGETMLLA

Experiment [2] concerns the target T2, TELOMERE REPEAT BINDING protein 1 (TRB1), BiFC fusion (Arabidopsis) (UniProt Q8VWK4).
T2 sequence: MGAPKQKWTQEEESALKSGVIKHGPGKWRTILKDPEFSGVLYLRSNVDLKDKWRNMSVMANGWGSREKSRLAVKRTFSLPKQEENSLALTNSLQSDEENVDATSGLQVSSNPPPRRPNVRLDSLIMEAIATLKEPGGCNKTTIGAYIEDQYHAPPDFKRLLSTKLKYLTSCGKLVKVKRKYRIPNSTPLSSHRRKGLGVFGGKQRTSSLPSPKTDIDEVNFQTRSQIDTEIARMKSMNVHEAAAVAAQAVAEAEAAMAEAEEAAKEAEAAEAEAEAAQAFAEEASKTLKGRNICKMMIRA
In words: split reporter.

For experiment [3], the target named is T3, TELOMERE REPEAT BINDING protein 2 (TRB2), BiFC fusion (Arabidopsis) (UniProt Q9FJW5).
T3 sequence: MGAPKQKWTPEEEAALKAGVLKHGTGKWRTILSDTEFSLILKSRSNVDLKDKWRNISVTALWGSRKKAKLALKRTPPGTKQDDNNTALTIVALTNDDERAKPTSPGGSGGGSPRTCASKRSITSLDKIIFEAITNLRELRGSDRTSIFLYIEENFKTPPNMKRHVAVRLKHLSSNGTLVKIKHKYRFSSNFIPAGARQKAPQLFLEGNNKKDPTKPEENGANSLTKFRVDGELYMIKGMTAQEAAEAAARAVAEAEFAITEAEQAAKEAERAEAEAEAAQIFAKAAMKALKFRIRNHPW
In words: split reporter.

In experiment [4] the target is T4, TELOMERE REPEAT BINDING protein 3 (TRB3), yeast two-hybrid fusion (Arabidopsis) (UniProt Q9M2X3).
T4 sequence: T1 sequence
Nature of the experiment: two-hybrid.

Experiment [5] has as its target T5, TELOMERE REPEAT BINDING protein 2 (TRB2), yeast two-hybrid fusion (Arabidopsis) (UniProt Q9FJW5).
T5 sequence: T3 sequence
In words: two-hybrid.

Experiment [6] deals with TELOMERE REPEAT BINDING protein 4 (TRB4), BiFC fusion (Arabidopsis) (UniProt F4I7L1). Nature of the experiment: split reporter.
Experiment [7] has as its target TELOMERE REPEAT BINDING protein 4 (TRB4), yeast two-hybrid fusion (Arabidopsis) (UniProt F4I7L1). In words: two-hybrid.

These are yes or no findings as the source states them, for the method shown. A result given as binding can be weak or reduced; the word gives no strength. For some of these results: Tags and fused reporters may be left off the sequences shown. For some of these results: In cells and extracts the contact can be indirect.

For “TELOMERE REPEAT BINDING protein 4 (TRB4), BiFC fusion (from UniProt F4I7L1)”, the binding entry in experiment [1], in experiment [2] and in experiment [3] was “binds” throughout.

As to “TELOMERE REPEAT BINDING protein 4 (TRB4), yeast two-hybrid fusion (from UniProt F4I7L1)”, the binding result in experiment [4] and in experiment [5] was “binds” in each case.

For “TELOMERE REPEAT BINDING protein 5 (TRB5), BiFC fusion (from UniProt F4IEY4)”, the binding result in experiment [6], in experiment [1], in experiment [2] and in experiment [3] was “binds” throughout.

“TELOMERE REPEAT BINDING protein 5 (TRB5), yeast two-hybrid fusion (from UniProt F4IEY4)”: the binding result in experiment [7] is reported as “binds”.

These data come from paper doi:10.1101/2023.08.16.553498.
